The values that follow come from the supplement of paper PMC7024190.

Counter-ions that a name gives are not always drawn. Some of the results follow. This data set is noisy: repeats of one test often differ as much as different tests do.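 The cells were human embryonic kidney cells carrying a Renilla luciferase gene, driven by the HSV-TK promoter, on a plasmid put in briefly by transfection. This is the first-round screen of about ten thousand compounds, looking for ones that raise reporter output.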

The assay relates to HEK 293FT. Kind of assay: log relative Renilla luciferase luminescence (reporter expression vs reference, reference not stated) (log (base not stated)); higher = higher recombinant reporter expression. The following applies: 10 µM; time after transfection 48 h.
On to `CS(=O)(=O)CCNCc1nc(-c2ccc3ncnc(Nc4ccc(OCc5cccc(F)c5)c(Cl)c4)c3c2)cs1`, for which the log turned out to be 0.027.

Take `Nc1ncnc2nc(-c3ccc(N4CCOCC4)nc3)cc(-c3cccc(Br)c3)c12` [ABT 702 dihydrochloride]: the log was -0.104.

On to `c1nc(CC2CCNCC2)c[nH]1` [Immepip dihydrobromide], for which the log was -0.00432.

As to `Cc1[nH]c(/C=C2\C(=O)Nc3ccc(S(=O)(=O)Cc4c(Cl)cccc4Cl)cc32)c(C)c1C(=O)N1CCC[C@@H]1CN1CCCC1`, the log was -0.104. Under `CC(C)C1C2CCC(C2)C1N` (stereo not given) stands 0.00532; under `Cc1c(C(=O)NN2CCOCC2)nn(-c2ccc(Cl)cc2Cl)c1-c1ccc(I)cc1`, -0.0734. For the compound `CC[C@H](C)C(=O)O[C@H]1C[C@@H](C)C=C2C=C[C@H](C)[C@H](CC[C@@H]3C[C@@H](O)CC(=O)O3)[C@H]21` [Lovastatin], the log came to 0.109. With `CNCCCCOc1ccccc1Cc1ccccc1` [Bifemelane hydrochloride], the log amounted to 0.00106. `CCc1nn(CCCN2CCN(c3cccc(Cl)c3)CC2)c(=O)n1CCOc1ccccc1` [Nefazodone hydrochloride]: the log was -0.0748. Under `CC(C)c1ccc(C(=O)c2cccs2)c(SCCCCCCCCN(C)C)n1` stands 0.182; under `CC(C)NCC(O)c1ccc(O)c(O)c1` (stereo not given) [Isoproterenol hydrochloride], 0.033; under `CC1=Nc2ccc(Cl)cc2S(=O)(=O)N1` [Diazoxide], 0.103.

As to `Cc1cccc(CCN2CCC(C(=O)c3ccc(NS(C)(=O)=O)cc3)CC2)n1` [E-4031 dihydrochloride], the log was 0.0999. As to `COC(=O)/C=C/c1cc(O)ccc1O` [Methyl 2,5-dihydroxycinnamate], the log came to 0.0544. As to `CC(C)(C)c1ccc(S(=O)(=O)/C=C/C#N)cc1`, the log is -0.076.

With `[O-][S+](c1ccccc1)c1ccc2nnnn2n1` (stereo not given), the log stood at 0.0718. Under `O=C(CCCCCN1C(=O)c2cccc3cccc(c23)C1=O)NO` [Scriptaid] stands 0.651. On to `Oc1cc(O)cc(/C=C/c2ccc(O)c(O)c2)c1` [Piceatannol], for which the log is 0.203. In the case of `CC(C)NCC(O)COc1ccc(CC(N)=O)cc1` (racemic) [(RS)-Atenolol], the log was 0.105.

`c1ccc2sc(N3CCN(Cc4ccc5c(c4)OCO5)CC3)nc2c1` [2-[1-(4-Piperonyl)piperazinyl]benzothiazole]: the log is -0.0265.

In the case of `O=C(O)c1ccc(C=C2SC(=S)N(c3cccc(C(F)(F)F)c3)C2=O)cc1`, the log is -0.355.

Regarding `O=c1c(-c2ccc(O)cc2)coc2cc(O)cc(O)c12` [Genistein], the log amounted to 0.0544. With `COc1ccc(CCN(C)CCCN2CCc3cc(OC)c(OC)cc3CC2=O)cc1OC` [Zatebradine hydrochloride], the log came out at 0.0915. As for `Cc1ccc(NC2=CC(=O)c3sc(C)nc3C2=O)cc1` [Ryuvidine], the log is -0.403.

For the compound `O=C(Cc1ccccc1)Nc1nc2ccc(Cl)cc2c2nc(-c3ccco3)nn12`, the log was found to be 0.2. Under `CC1(c2ccccc2)OC(C(=O)O)=CC1=O` (stereo not given) [Acifran] stands -0.185; under `N=C(N)S/C=C\C(=O)O` [ZAPA sulphate], -0.168. Under `COc1ccc([C@@H]2CNC(=O)C2)cc1OC1CCCC1` [(R)-(-)-Rolipram] stands 0.037; under `O=C1CN(/N=C/c2ccc(-c3ccc([N+](=O)[O-])cc3)o2)C(=O)N1` [Dantrolene, sodium salt], -0.0428. In the case of `O=C(O)Cc1ccc(OCCNC[C@H](O)c2ccccc2)cc1` [ZD 2079 hydrochloride], the log was 0.0628. Regarding `Nc1nc(F)nc2c1ncn2[C@@H]1O[C@H](CO)[C@@H](O)[C@@H]1O` [Fludarabine], the log is -0.00721. Consider `O=C1NC(=O)c2cc(Nc3ccc(F)cc3)c(Nc3ccc(F)cc3)cc21`, for which the log is -0.0275.

With `O=C1NC(=O)c2cc(Nc3ccccc3)c(Nc3ccccc3)cc21`, the log is 0.0341. As to `COc1ccccc1N1CCN(CCN2C(=O)CC3(CCCC3)CC2=O)CC1` [BMY 7378 dihydrochloride], the log came to 0.023.

With `O=[N+]([O-])c1cc2nc(O)c(O)nc2cc1[N+](=O)[O-]`, the log was -0.0277. With `COC(=O)/C=C/c1cccc(N(Cc2ccc(-c3ccc(N(C)C)cc3)cc2)C(=O)C2CCCCC2)c1` [Fexaramine], the log is -0.0188. For the compound `Cc1c(C(=O)NC2CCCCC2)sc2nc3ccc(N)cc3n12`, the log is -0.0364. As to `CCCCN1CCC(CCC(=O)c2cc(Cl)c(N)cc2OC)CC1`, the log came to 0.144. As to `NCCCCNCCCN` [Spermidine trihydrochloride], the log was 0.0496.

On to `OC(CN1CCN(c2cccc(Cl)c2)CC1)C(c1ccccc1)c1ccccc1` (stereo not given), for which the log came to 0.025.
